# Measurements: the supplement of paper PMC3334620
# Over roughly 33,000 sequences, “E-score (-0.5 to 0.5)” has its median near -0.0014; the highest 2% begin near 0.25. This is one part of the list.
# Biological target: T1, Cad1 (UniProt P24813)
# T1 sequence: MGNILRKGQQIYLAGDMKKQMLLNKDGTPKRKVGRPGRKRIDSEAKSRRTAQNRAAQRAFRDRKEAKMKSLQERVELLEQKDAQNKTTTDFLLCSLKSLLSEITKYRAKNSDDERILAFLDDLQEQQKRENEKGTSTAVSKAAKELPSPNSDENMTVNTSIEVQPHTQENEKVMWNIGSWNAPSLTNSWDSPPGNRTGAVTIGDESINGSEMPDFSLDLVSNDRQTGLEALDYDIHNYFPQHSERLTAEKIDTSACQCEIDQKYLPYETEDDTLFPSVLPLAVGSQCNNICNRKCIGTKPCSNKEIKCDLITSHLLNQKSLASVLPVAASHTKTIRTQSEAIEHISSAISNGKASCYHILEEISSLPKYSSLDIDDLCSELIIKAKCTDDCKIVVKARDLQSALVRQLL
# Assay: PBM E-score (8-mer binding enrichment) (E-score (-0.5 to 0.5)); higher = stronger / more preferred TF binding
# Conditions: protein concentration: 100 nM; construct: GST-full length
# In short: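 Full-length yeast transcription factors or their DNA-binding domains, GST-tagged and expressed with PURExpress, were applied at about 100-200 nM to universal all-10-mer Agilent arrays. These arrays had been made double-stranded by primer extension on fresh or once-stripped slides. Detection used fluorescent anti-GST, normalisation used masliner, and E-scores for ungapped eight-base words pooled with reverse complements came from the Universal PBM Analysis Suite.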
row,Sequence,PBM E-score
1,CTAGTGAC,-0.0382
2,TGCAGCCA,0.0846
3,CATGAGCC,-0.137
4,ATTGGGGA,-0.233
5,AATCACTA,0.121
6,CGCAGTAG,-0.0245
7,GAACCTAA,0.0369
8,GGAGGGAA,-0.0505
9,CGCCAAAC,-0.0518
10,GGCGATCA,-0.165
11,CCTATACC,-0.224
12,AGATTGGA,-0.0081
13,CAGACAGG,-0.16
14,AATACAAA,0.201
15,ACGCGGTG,-0.019
16,GAAGATGC,-0.223
17,CCGATATC,0.222
18,AAGGGCTG,-0.304
19,AATGGTGA,-0.129
20,GCCATAGA,-0.158
21,AGAAATAA,0.206
22,AATCTTAA,0.0955
23,CGGCGAAA,0.199
24,AGACTTAA,-0.0384
25,CGGGCTGA,-0.0677

row,Sequence,PBM E-score
1,ATCCGGAG,0.19
2,CGCCTGTA,-0.0217
3,AATAAATG,0.0809
4,AAACAATG,0.16
5,ACATGCAT,0.124
6,GTGGATGA,0.0866
7,CCCACCGG,-0.278
8,GTGGGCTA,-0.0266
9,AGAAGTCG,-0.0485
10,CATGTCTA,-0.139
11,ATTGACGA,0.0925
12,ATGCAAAC,0.0079
13,GTCAGAGA,-0.0855
14,TTATGGAA,-0.0749
15,CCCATAAA,-0.0945
16,CAGCCTGA,-0.131
17,ACTTTTAC,0.197
18,GAGTCCCC,-0.229
19,ATCCAATC,-0.0344
20,ACTTAGAA,-0.0161
21,AGCACGGC,0.0913
22,ACAGGAGT,-0.0278
23,TACGCTGA,0.275
24,GAGCAGGC,-0.0138
25,AGCCCCGA,-0.153

row,Sequence,PBM E-score
1,ATCATAAG,0.0855
2,TAGGCCAA,0.0604
3,GTGGGTAA,-0.136
4,GACAGGCA,-0.13
5,ACTGAAGT,-0.0257
6,ATTCGATC,0.0616
7,GGTATAGA,-0.0165
8,AAAGTATT,0.0404
9,CGGTGTAA,-0.0121
10,CACGCGCC,0.0308
11,AAACCTTG,-0.115
12,TCCATCAA,0.0278
13,GGAGGTGA,0.0201
14,CGTAGGAG,-0.0583
15,ACTGGTCC,-0.117
16,ATAACTAA,0.146
17,CACGTCAG,0.0462
18,ATGTTTAC,0.121
19,AAGTATCT,-0.0194
20,GCGCAGAA,0.262
21,AGTCAACC,-0.128
22,GATGCTTA,-0.168
23,GGCTGCAC,0.0227
24,GGCATTAA,-0.0935
25,ATAATAAT,0.161

row,Sequence,PBM E-score
1,ACATTCGA,-0.0398
2,ACCCCCGC,-0.238
3,AGCAGGAT,0.0257
4,CGCTCAAC,0.103
5,GGGATATA,-0.0288
6,AGCCGGGC,-0.068
7,GAACAGAC,0.0866
8,GTTGGGAA,0.024
9,CCGTCGCG,0.0507
10,AAATTTGT,0.277
11,AGGAAGAT,-0.00586
12,GAGAAGAC,-0.125
13,ATTCCGTG,0.173
14,ACTATCTA,0.224
15,CAGAAGAG,-0.107
16,CCGAGAGG,-0.222
17,GTTCGGGA,0.166
18,CAGCCTCG,0.207
19,GAGCAAGA,-0.0134
20,GGTGTTTA,0.00798
21,GTGAGATA,-0.0227
22,CCTGCCCG,-0.0347
23,AGAATGTG,0.0352
24,CGTACAAA,0.188
25,AGACTAAA,-0.00769

row,Sequence,PBM E-score
1,CACGCCAG,-0.077
2,ATCCGAGC,-0.0221
3,CCACGAAG,-0.129
4,CCGTGCCG,-0.0563
5,CTTTACCA,0.00321
6,ACTTGTTA,-0.0872
7,ACCCGCAA,-0.284
8,CGAACCTA,-0.0293
9,ATCTTCTC,-0.0637
10,CTGCGCAG,-0.16
11,CCTGGATC,-0.142
12,CTCACGCA,0.208
13,CCATGCCC,-0.277
14,CTGGGCCA,-0.173
15,ATTATAAC,0.0512
16,AGATCCGC,-0.0043
17,CAGCACAG,0.17
18,CAACGATA,0.174
19,ATGCCAAC,-0.027
20,AAATCTAG,0.0389
21,GTGTTAGA,0.0752
22,GCGACTGA,-0.0289
23,AGGAGTCG,-0.219
24,CACAGCGG,-0.0663
25,AATAGGGA,-0.0788

row,Sequence,PBM E-score
1,GAACAATA,0.199
2,GCTGGCAA,0.0981
3,ATTAGTGC,0.353
4,TCAGGCGA,-0.0232
5,ATCTACGC,0.102
6,CAAGAATA,0.161
7,CATACTGC,0.00867
8,CCCTACCG,-0.112
9,CAGGCGGG,-0.153
10,TGGTAGAA,0.0454
11,TAAAAGAA,0.0891
12,GTTCAAAC,0.0152
13,ATGAAGAG,0.0613
14,AACAGTCA,0.0298
15,ACAGTCAT,-0.0411
16,ACCGCTCC,-0.124
17,CGGTAACC,-0.0228
18,AGTGGCAC,-0.148
19,ATGACTCA,0.195
20,AAGTGAGG,-0.149
21,CTTCGAAA,-0.0423
22,ACTGTCAT,0.0949
23,AGATTTAC,0.0822
24,GAACCTGC,-0.018
25,AAGCCGTC,0.0241

row,Sequence,PBM E-score
1,ATGGTACC,-0.0348
2,AAACAGGC,-0.0715
3,GGAGAGAA,-0.207
4,AAGAACAA,0.217
5,CACAACGG,-0.109
6,CATGGCCG,-0.0819
7,CTTCGATC,-0.00496
8,TGCACACA,0.0945
9,ATGGAAGG,-0.204
10,CCTTGAGC,-0.0881
11,GATCCGTA,-0.0959
12,AAAACACA,0.0947
13,AAAAAAAG,0.0283
14,TGGGCTAA,-0.0882
15,CCTCGGCG,0.0729
16,AACGGTCG,0.0263
17,AAGTCGAC,0.256
18,AGGAGCCC,-0.0882
19,GATGAAAA,0.172
20,CTTCAACA,0.15
21,AAATGCTC,-0.0562
22,CTTCTTAA,0.116

# As a short view, some entries already given:
row,Sequence,PBM E-score
23,AGGAGTCG,-0.219
24,CACAGCGG,-0.0663
25,AATAGGGA,-0.0788
1,GAACAATA,0.199
2,GCTGGCAA,0.0981
3,ATTAGTGC,0.353
4,TCAGGCGA,-0.0232
5,ATCTACGC,0.102
6,CAAGAATA,0.161
7,CATACTGC,0.00867
8,CCCTACCG,-0.112
9,CAGGCGGG,-0.153
10,TGGTAGAA,0.0454
11,TAAAAGAA,0.0891
12,GTTCAAAC,0.0152
13,ATGAAGAG,0.0613
14,AACAGTCA,0.0298
15,ACAGTCAT,-0.0411
16,ACCGCTCC,-0.124
17,CGGTAACC,-0.0228
18,AGTGGCAC,-0.148
19,ATGACTCA,0.195
20,AAGTGAGG,-0.149
21,CTTCGAAA,-0.0423
22,ACTGTCAT,0.0949
23,AGATTTAC,0.0822
24,GAACCTGC,-0.018
25,AAGCCGTC,0.0241
1,ATGGTACC,-0.0348
2,AAACAGGC,-0.0715
3,GGAGAGAA,-0.207
4,AAGAACAA,0.217
5,CACAACGG,-0.109
6,CATGGCCG,-0.0819
7,CTTCGATC,-0.00496
8,TGCACACA,0.0945
9,ATGGAAGG,-0.204
10,CCTTGAGC,-0.0881
11,GATCCGTA,-0.0959
12,AAAACACA,0.0947
13,AAAAAAAG,0.0283
14,TGGGCTAA,-0.0882
15,CCTCGGCG,0.0729
16,AACGGTCG,0.0263
17,AAGTCGAC,0.256
18,AGGAGCCC,-0.0882
19,GATGAAAA,0.172
20,CTTCAACA,0.15
